Test results: paper PMC6525205, “Structure of the human frataxin-bound iron-sulfur cluster assembly complex provides insight into its activation mechanism” (Nature Communications, 2019)
No constants are given. Whether binding was seen depends on the method and setting. Some entries that bind do so weakly or less than the wild type.

Amino acid sequences for entries named in this document (tags omitted). A change or cut given only in a name is not applied to a line headed by its entry. Residues count along the entry.
UniProt Q9HD34: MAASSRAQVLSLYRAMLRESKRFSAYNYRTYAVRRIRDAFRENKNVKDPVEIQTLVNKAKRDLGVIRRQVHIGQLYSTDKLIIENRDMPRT
UniProt Q9Y697, residues 56-457: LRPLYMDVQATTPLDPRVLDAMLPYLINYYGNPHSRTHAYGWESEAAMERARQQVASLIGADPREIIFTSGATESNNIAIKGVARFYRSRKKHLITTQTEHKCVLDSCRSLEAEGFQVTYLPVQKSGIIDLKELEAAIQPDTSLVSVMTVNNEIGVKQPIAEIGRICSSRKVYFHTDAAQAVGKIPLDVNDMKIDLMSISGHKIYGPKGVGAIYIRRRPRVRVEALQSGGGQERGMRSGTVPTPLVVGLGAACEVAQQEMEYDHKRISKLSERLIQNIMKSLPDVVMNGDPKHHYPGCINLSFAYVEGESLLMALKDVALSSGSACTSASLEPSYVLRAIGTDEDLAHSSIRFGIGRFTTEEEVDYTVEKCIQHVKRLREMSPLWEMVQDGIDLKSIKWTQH

Target: His-tagged ISD11 (human) (UniProt Q9HD34)
Assay: co-purification (Ni affinity, then size exclusion); proteins co-expressed in E. coli; His-ISD11 captured on Ni Sepharose; 50 mM HEPES pH 7.5, 500 mM NaCl, imidazole, 5% glycerol, 2 mM TCEP; then Superdex S200

## NFS1 (Δ1-55), non-tagged (from UniProt Q9Y697 56-457) (enzyme)
  binding: binds
